Source: PubChem BioAssay AID493246 (Drosophila RNAi Screening Center, 2011)
Assay: 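Genome-wide search for dsRNAs that reduce cell number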 (primary screen). Cells: Drosophila Kc and S2R+ cells. Reagent: long dsRNA against Drosophila genes. Measured: 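Raw, unnormalised count of remaining cells in each well; per-plate z-scores of cell number underlie the calls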. Scale: Kc cell number and S2R+ cell number: higher = more cells remaining. Active means: 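Counted as a hit if cell number falls by a z-score of at least 3 within its plate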.
The screen tested about 21,000 reagents; this is an unselected part of those that have a named target and a result. In the full data, 429 (2%) got an active call. 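Values are raw and not normalised between plates; calls rest on per-plate z-scores that were not deposited.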 The record does not give: the amount of reagent, the time to read-out.

| gene knocked down | amplicon | Kc cell number, rep 1 | Kc cell number, rep 2 | S2R+ cell number, rep 1 | S2R+ cell number, rep 2 | outcome |
| --- | --- | --- | --- | --- | --- | --- |
| CG6607 (GeneID 42925) | DRSC16073 | 1.43e6 | 1.70e6 | 1.10e6 | 1.20e6 | inactive |
| Cad86C (GeneID 41302) | DRSC15587 | 1.45e6 | 1.63e6 | 1.28e6 | 1.41e6 | inactive |
| Cad86C (GeneID 41302) | DRSC15611 | 1.69e6 | 1.67e6 | 1.26e6 | 1.35e6 | inactive |
| Tsp29Fb (GeneID 34212) | DRSC03233 | 1.55e6 | 1.57e6 | 1.09e6 | 1.20e6 | inactive |
| dbr (GeneID 33161) | DRSC00274 | 1.21e6 | 1.01e6 | 6.47e5 | 6.47e5 | inactive |
| Coa8 (GeneID 31148) | DRSC17959 | 1.52e6 | 1.42e6 | 1.07e6 | 1.15e6 | inactive |
| CG16736 (GeneID 41101) | DRSC15145 | 1.64e6 | 1.77e6 | 1.32e6 | 1.57e6 | inactive |
| Ssl2 (GeneID 43424) | DRSC14395 | 1.55e6 | 1.60e6 | 1.11e6 | 1.46e6 | inactive |
| l(2)k09848 (GeneID 35536) | DRSC04894 | 1.38e6 | 1.46e6 | 9.83e5 | 1.11e6 | inactive |
| Cdc16 (GeneID 42753) | DRSC16920 | 1.58e6 | 1.58e6 | 1.04e6 | 1.12e6 | inactive |
| pit (GeneID 42595) | DRSC17025 | 1.37e6 | 1.34e6 | 9.65e5 | 1.02e6 | inactive |
| tbrd-1 (GeneID 42823) | DRSC14601 | 1.46e6 | 1.49e6 | 9.58e5 | 1.01e6 | inactive |
| l(3)62Be (retired record) (GeneID 48504) | DRSC08231 | 1.61e6 | 1.56e6 | 1.09e6 | 1.10e6 | inactive |
| DZIP1 (GeneID 42921) | DRSC14620 | 1.53e6 | 1.70e6 | 1.10e6 | 1.21e6 | inactive |
| CG13285 (GeneID 38623) | DRSC09960 | 1.46e6 | 1.54e6 | 1.14e6 | 1.22e6 | inactive |

2 entries already listed, ordered by “S2R+ cell number, rep 2”, low to high.
| gene knocked down | amplicon | Kc cell number, rep 1 | Kc cell number, rep 2 | S2R+ cell number, rep 1 | S2R+ cell number, rep 2 | outcome |
| --- | --- | --- | --- | --- | --- | --- |
| Coa8 (GeneID 31148) | DRSC17959 | 1.52e6 | 1.42e6 | 1.07e6 | 1.15e6 | inactive |
| CG16736 (GeneID 41101) | DRSC15145 | 1.64e6 | 1.77e6 | 1.32e6 | 1.57e6 | inactive |

More records:
| gene knocked down | amplicon | Kc cell number, rep 1 | Kc cell number, rep 2 | S2R+ cell number, rep 1 | S2R+ cell number, rep 2 | outcome |
| --- | --- | --- | --- | --- | --- | --- |
| ImpE1 (GeneID 45879) | DRSC11195 | 1.35e6 | 1.37e6 | 1.12e6 | 1.15e6 | inactive |
| ImpE1 (GeneID 45879) | DRSC11196 | 1.41e6 | 1.39e6 | 1.10e6 | 1.15e6 | inactive |
| CG14647 (GeneID 40558) | DRSC12233 | 1.67e6 | 1.71e6 | 1.44e6 | 1.49e6 | inactive |
| CG15308 (GeneID 50415) | DRSC17995 | 1.59e6 | 1.50e6 | 1.15e6 | 1.28e6 | inactive |
| CG16812 (GeneID 34722) | DRSC02519 | 1.35e6 | 1.44e6 | 1.09e6 | 1.21e6 | inactive |
| CG9945 (GeneID 37329) | DRSC07347 | 1.61e6 | 1.46e6 | 9.88e5 | 1.21e6 | inactive |
| Crys (GeneID 34604) | DRSC03294 | 1.30e6 | 1.38e6 | 9.73e5 | 1.08e6 | inactive |
| CG7384 (GeneID 34447) | DRSC03053 | 1.35e6 | 1.25e6 | 1.00e6 | 1.11e6 | inactive |
| Mkrn1 (GeneID 44131) | DRSC11870 | 1.27e6 | 1.44e6 | 1.22e6 | 1.33e6 | inactive |
